In publication PMC5535931 one finds binding data, which are given here for 29 molecules.

Amino acid sequences for entries named in this document (tags omitted). Residues count along the entry.
UniProt Q15910: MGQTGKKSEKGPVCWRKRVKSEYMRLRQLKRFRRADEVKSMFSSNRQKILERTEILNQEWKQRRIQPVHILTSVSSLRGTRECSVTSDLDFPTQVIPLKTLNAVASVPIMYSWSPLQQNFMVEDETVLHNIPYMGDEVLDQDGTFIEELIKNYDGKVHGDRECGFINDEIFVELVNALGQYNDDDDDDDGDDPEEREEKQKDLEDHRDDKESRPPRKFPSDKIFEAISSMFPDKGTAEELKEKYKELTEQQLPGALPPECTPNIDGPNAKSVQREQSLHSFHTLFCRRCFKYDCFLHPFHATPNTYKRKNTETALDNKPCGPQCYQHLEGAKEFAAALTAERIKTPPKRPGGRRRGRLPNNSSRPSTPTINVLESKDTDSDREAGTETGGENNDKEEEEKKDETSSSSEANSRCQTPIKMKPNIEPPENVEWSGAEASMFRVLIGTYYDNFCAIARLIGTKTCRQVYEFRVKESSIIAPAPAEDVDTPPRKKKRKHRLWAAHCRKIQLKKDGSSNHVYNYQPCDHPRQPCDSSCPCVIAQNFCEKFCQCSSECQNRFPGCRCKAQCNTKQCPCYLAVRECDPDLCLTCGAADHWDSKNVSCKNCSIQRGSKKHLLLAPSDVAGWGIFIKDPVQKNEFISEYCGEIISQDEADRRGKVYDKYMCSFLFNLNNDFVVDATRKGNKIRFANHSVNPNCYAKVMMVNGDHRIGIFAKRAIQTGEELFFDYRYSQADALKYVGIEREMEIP
UniProt A6NHQ4: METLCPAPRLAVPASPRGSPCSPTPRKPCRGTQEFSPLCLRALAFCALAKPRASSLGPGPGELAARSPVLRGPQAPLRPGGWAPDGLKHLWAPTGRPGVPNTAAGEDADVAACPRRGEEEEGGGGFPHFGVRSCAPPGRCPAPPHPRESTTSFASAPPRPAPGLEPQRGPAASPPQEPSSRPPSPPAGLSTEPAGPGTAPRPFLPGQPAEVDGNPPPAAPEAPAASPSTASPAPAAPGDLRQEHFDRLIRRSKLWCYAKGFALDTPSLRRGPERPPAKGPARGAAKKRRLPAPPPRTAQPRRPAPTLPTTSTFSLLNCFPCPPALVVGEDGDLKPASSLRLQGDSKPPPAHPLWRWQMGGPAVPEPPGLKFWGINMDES
UniProt Q7KZF4: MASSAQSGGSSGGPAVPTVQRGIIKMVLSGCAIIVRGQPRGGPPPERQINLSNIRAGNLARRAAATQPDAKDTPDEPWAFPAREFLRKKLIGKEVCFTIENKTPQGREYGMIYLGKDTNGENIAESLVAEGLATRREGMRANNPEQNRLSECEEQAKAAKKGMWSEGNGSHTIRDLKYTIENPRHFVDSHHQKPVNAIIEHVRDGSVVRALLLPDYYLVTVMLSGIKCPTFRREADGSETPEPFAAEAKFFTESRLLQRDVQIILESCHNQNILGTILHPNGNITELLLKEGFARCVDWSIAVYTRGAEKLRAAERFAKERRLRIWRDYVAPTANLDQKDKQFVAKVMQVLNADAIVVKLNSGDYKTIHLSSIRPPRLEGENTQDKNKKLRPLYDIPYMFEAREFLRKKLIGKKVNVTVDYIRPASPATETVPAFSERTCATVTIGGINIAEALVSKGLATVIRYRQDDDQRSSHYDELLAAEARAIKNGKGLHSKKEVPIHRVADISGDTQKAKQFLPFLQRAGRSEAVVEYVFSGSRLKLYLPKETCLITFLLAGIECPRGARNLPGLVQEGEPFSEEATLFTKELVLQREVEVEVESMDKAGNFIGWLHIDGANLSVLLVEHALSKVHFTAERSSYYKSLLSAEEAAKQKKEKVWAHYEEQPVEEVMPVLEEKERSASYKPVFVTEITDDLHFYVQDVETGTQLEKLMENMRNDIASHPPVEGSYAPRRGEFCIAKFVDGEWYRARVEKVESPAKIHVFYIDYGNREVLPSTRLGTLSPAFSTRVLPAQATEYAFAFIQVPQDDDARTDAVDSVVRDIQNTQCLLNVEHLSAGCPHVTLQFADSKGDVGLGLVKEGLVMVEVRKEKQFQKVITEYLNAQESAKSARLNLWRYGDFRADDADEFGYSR
UniProt P25705, residues 44-553: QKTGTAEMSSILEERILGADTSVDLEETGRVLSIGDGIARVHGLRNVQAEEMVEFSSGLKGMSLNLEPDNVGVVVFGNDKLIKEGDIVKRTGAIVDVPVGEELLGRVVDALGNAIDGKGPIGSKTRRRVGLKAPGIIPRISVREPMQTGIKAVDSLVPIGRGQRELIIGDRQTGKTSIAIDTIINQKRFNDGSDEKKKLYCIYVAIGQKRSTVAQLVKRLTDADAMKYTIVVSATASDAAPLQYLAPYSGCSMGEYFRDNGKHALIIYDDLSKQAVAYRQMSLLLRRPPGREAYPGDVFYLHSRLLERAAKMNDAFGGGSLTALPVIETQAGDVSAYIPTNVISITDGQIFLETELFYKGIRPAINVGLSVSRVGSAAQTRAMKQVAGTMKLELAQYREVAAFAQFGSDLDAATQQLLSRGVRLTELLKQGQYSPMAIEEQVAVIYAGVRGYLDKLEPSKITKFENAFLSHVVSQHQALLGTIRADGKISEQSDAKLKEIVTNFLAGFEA
UniProt P68104: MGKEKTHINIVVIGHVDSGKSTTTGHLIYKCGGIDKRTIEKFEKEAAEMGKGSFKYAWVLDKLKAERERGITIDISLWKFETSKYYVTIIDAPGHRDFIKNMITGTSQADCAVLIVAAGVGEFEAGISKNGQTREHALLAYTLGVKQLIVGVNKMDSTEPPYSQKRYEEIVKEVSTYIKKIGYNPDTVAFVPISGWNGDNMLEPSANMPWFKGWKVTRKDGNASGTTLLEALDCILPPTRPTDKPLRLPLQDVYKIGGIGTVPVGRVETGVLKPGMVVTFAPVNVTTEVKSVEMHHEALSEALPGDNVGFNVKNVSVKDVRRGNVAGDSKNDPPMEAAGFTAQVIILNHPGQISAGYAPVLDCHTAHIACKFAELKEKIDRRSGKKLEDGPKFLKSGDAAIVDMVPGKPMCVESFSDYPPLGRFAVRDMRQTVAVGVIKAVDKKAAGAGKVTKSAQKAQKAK
UniProt P67809: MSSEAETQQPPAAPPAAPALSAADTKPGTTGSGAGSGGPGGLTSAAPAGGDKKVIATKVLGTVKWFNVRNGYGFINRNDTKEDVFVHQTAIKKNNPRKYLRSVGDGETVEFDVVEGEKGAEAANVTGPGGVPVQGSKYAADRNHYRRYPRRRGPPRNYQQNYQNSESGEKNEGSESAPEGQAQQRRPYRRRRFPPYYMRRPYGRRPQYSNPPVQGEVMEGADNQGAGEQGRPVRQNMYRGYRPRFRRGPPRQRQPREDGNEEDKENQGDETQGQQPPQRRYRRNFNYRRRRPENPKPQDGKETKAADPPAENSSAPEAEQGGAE
UniProt P31943: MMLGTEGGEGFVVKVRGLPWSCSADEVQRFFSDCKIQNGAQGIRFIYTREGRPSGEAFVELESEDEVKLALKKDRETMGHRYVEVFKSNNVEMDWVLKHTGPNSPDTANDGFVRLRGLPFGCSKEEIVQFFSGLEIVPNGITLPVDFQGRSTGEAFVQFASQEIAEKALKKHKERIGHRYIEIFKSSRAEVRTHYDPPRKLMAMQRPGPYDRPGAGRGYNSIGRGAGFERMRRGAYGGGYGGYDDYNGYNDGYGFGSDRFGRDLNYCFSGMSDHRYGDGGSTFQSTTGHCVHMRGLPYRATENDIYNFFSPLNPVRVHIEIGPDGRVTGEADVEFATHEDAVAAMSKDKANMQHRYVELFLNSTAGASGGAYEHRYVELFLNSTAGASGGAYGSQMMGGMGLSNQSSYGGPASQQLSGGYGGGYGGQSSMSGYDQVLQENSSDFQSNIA
UniProt P26038: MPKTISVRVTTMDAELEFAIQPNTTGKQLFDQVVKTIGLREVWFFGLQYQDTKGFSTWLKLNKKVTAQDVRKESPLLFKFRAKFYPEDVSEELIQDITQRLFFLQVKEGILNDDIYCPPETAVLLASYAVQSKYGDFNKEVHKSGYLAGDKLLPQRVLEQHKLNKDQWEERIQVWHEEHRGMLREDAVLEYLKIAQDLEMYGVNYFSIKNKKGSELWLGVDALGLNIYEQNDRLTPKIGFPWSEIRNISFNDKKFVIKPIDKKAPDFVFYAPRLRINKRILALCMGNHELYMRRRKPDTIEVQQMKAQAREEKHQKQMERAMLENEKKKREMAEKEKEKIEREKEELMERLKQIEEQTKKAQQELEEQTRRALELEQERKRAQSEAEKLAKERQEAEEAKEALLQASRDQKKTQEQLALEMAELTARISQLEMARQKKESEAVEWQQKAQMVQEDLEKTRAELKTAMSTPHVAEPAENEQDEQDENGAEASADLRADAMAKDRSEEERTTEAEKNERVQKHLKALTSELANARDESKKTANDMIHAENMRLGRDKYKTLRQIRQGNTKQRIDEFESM
UniProt Q9Y483: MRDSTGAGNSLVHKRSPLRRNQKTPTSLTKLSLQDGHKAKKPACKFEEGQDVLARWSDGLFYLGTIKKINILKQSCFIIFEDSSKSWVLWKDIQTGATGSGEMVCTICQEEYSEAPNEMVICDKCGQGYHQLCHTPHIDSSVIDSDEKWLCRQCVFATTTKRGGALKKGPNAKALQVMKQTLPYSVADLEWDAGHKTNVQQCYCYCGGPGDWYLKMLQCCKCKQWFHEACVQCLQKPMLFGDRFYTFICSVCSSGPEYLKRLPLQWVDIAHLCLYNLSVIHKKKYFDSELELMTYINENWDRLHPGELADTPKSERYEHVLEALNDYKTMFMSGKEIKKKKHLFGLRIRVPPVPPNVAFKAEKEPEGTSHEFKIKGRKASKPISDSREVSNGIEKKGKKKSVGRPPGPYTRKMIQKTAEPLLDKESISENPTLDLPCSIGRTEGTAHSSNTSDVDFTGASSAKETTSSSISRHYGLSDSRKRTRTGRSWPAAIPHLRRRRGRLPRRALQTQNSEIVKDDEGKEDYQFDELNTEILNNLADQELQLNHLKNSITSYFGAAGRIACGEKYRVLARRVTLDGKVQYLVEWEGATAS
UniProt P09874: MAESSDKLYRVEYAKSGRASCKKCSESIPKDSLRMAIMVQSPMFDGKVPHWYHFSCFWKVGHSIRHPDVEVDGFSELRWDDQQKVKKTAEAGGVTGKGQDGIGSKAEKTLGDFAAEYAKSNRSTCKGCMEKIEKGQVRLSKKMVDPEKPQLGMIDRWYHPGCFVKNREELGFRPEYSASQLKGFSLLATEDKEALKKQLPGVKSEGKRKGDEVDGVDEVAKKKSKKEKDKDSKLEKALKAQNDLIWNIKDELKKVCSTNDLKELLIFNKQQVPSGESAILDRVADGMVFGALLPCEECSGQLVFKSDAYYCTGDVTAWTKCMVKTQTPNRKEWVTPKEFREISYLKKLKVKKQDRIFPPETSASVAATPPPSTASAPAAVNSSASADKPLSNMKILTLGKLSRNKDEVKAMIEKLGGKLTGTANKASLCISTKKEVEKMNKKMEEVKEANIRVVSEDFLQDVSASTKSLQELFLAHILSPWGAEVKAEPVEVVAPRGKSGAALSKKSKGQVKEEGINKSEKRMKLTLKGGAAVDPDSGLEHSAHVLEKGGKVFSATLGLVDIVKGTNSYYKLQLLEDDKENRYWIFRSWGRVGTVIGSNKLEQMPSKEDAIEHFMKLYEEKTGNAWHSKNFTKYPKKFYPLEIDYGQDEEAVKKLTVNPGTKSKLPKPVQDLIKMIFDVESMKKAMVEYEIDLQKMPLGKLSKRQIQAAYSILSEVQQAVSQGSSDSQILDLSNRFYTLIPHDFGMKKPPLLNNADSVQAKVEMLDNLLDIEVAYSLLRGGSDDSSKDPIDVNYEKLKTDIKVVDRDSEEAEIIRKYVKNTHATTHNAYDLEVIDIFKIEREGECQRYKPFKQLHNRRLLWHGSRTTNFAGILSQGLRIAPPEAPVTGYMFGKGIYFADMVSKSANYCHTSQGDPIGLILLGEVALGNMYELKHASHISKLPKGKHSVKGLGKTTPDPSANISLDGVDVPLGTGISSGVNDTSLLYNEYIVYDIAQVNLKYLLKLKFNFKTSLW
UniProt Q9NPF5: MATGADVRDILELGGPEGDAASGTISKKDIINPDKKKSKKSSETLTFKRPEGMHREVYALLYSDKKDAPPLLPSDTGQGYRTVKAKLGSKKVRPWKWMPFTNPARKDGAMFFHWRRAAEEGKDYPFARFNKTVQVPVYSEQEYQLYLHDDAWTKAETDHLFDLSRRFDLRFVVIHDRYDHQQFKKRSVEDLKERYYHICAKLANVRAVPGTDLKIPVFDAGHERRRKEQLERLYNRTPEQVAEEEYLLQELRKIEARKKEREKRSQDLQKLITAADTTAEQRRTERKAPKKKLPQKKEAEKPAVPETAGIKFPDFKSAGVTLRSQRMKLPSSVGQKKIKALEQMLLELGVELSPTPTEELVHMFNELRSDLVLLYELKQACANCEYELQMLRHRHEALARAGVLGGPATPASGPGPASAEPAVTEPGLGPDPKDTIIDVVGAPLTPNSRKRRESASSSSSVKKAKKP
UniProt P05387: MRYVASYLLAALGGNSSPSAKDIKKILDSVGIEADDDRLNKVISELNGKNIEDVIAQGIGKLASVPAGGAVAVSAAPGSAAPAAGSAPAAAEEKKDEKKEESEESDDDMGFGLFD

No constants are given. Whether binding was seen depends on the method and setting. Binding seen in cells or lysates may run through a third protein. A yes stands for co-enrichment or nearness to the bait. Other partners may have been found.

The labels stand for the following.
B1: CCDC124 (protein, UniProt Q96CT7 1-223)
chain: MPKKFQGENTKSAAARARRAEAKAAADAKKQKELEDAYWKDDDKHVMRKEQRKEEKEKRRLDQLERKKETQRLLEEEDSKLKGGKAPRVATSSKVTRAQIEDTLRRDHQLREAPDTAEKAKSHLEVPLEENVNRRVLEEGSVEARTIEDAIAVLSVAEEAADRHPERRMRAAFTAFEEAQLPRLKQENPNMRLSQLKQLLKKEWLRSPDNPMNQRAVPFNAPK
B2: LCOR (protein, UniProt Q96JN0 1-433)
chain: MQRMIQQFAAEYTSKNSSTQDPSQPNSTKNQSLPKASPVTTSPTAATTQNPVLSKLLMADQDSPLDLTVRKSQSEPSEQDGVLDLSTKKSPCAGSTSLSHSPGCSSTQGNGRPGRPSQYRPDGLRSGDGVPPRSLQDGTREGFGHSTSLKVPLARSLQISEELLSRNQLSTAASLGPSGLQNHGQHLILSREASWAKPHYEFNLSRMKFRGNGALSNISDLPFLAENSAFPKMALQAKQDGKKDVSHSSPVDLKIPQVRGMDLSWESRTGDQYSYSSLVMGSQTESALSKKLRAILPKQSRKSMLDAGPDSWGSDAEQSTSGQPYPTSDQEGDPGSKQPRKKRGRYRQYNSEILEEAISVVMSGKMSVSKAQSIYGIPHSTLEYKVKERLGTLKNPPKKKMKLMRSEGPDVSVKIELDPQGEAAQSANESKNE
B3: PA2G4 (protein, UniProt Q9UQ80 1-394)
chain: MSGEDEQQEQTIAEDLVVTKYKMGGDIANRVLRSLVEASSSGVSVLSLCEKGDAMIMEETGKIFKKEKEMKKGIAFPTSISVNNCVCHFSPLKSDQDYILKEGDLVKIDLGVHVDGFIANVAHTFVVDVAQGTQVTGRKADVIKAAHLCAEAALRLVKPGNQNTQVTEAWNKVAHSFNCTPIEGMLSHQLKQHVIDGEKTIIQNPTDQQKKDHEKAEFEVHEVYAVDVLVSSGEGKAKDAGQRTTIYKRDPSKQYGLKMKTSRAFFSEVERRFDAMPFTLRAFEDEKKARMGVVECAKHELLQPFNVLYEKEGEFVAQFKFTVLLMPNGPMRITSGPFEPDLYKSEMEVQDAELKALLQSSASRKTQKKKKKKASKTAENATSGETLEENEAGD
B4: LRRFIP1 (protein, UniProt Q32MZ4 1-808)
chain: MTSPAAAQSREIDCLSPEAQKLAEARLAAKRAARAEAREIRMKELERQQKEEDSERYSRRSRRNTSASDEDERMSVGSRGSLRVEERPEKDFTEKGSRNMPGLSAATLASLGGTSSRRGSGDTSISIDTEASIREIKELNELKDQIQDVEGKYMQGLKEMKDSLAEVEEKYKKAMVSNAQLDNEKTNFMYQVDTLKDMLLELEEQLAESRRQYEEKNKEFEREKHAHSILQFQFAEVKEALKQREEMLEKHGIILNSEIATNGETSDTLNNVGYQGPTKMTKEELNALKSTGDGTLGRASEVEVKNEIVANVGKREILHNTEKEQHTEDTVKDCVDIEVFPAGENTEDQKSSEDTAPFLGTLAGATYEEQVQSQILESSSLPENTVQVESNEVMGAPDDRTRTPLEPSNCWSDLDGGNHTENVGEAAVTQVEEQAGTVASCPLGHSDDTVYHDDKCMVEVPQELETSTGHSLEKEFTNQEAAEPKEVPAHSTEVGRDHNEEEGEETGLRDEKPIKTEVPGSPAGTEGNCQEATGPSTVDTQNEPLDMKEPDEEKSDQQGEALDSSQKKTKNKKKKNKKKKSPVPVETLKDVKKELTYQNTDLSEIKEEEQVKSTDRKSAVEAQNEVTENPKQKIAAESSENVDCPENPKIKLDGKLDQEGDDVQTAAEEVLADGDTLDFEDDTVQSSGPRAGGEELDEGVAKDNAKIDGATQSSPAEPKSEDADRCTLPEHESPSQDISDACEAESTERCEMSEHPSQTVRKALDSNSLENDDLSAPGREPGHFNPESREDTRGGNEKGKSKEDCTMS
B5: RRP1B (protein, UniProt Q14684 1-758)
chain: MAPAMQPAEIQFAQRLASSEKGIRDRAVKKLRQYISVKTQRETGGFSQEELLKIWKGLFYCMWVQDEPLLQEELANTIAQLVHAVNNSAAQHLFIQTFWQTMNREWKGIDRLRLDKYYMLIRLVLRQSFEVLKRNGWEESRIKVFLDVLMKEVLCPESQSPNGVRFHFIDIYLDELSKVGGKELLADQNLKFIDPFCKIAAKTKDHTLVQTIARGVFEAIVDQSPFVPEETMEEQKTKVGDGDLSAEEIPENEVSLRRAVSKKKTALGKNHSRKDGLSDERGRDDCGTFEDTGPLLQFDYKAVADRLLEMTSRKNTPHFNRKRLSKLIKKFQDLSEGSSISQLSFAEDISADEDDQILSQGKHKKKGNKLLEKTNLEKEKGSRVFCVEEEDSESSLQKRRRKKKKKHHLQPENPGPGGAAPSLEQNRGREPEASGLKALKARVAEPGAEATSSTGEESGSEHPPAVPMHNKRKRPRKKSPRAHREMLESAVLPPEDMSQSGPSGSHPQGPRGSPTGGAQLLKRKRKLGVVPVNGSGLSTPAWPPLQQEGPPTGPAEGANSHTTLPQRRRLQKKKAGPGSLELCGLPSQKTASLKKRKKMRVMSNLVEHNGVLESEAGQPQALGSSGTCSSLKKQKLRAESDFVKFDTPFLPKPLFFRRAKSSTATHPPGPAVQLNKTPSSSKKVTFGLNRNMTAEFKKTDKSILVSPTGPSRVAFDPEQKPLHGVLKTPTSSPASSPLVAKKPLTTTPRRRPRAMDFF

In this experiment the target is EZH2 (Enhancer of zeste homology 2) (human (endogenous in HL-60)) (UniProt Q15910). As to the kind of experiment: affinity purification with mass spectrometry; immunoprecipitation of native, untagged EZH2 from HL-60 lysates (untreated, or stimulated with 0.1 µM AtRA) with anti-EZH2 antibodies (Abcam ab186006; Cell Signaling clone AC22) on protein A/G magnetic beads, overnight at 4 °C, against IgG isotype controls; LC-MS/MS; hits filtered by fold change over IgG, CRAPome and SAINTexpress.
Regarding HNRNPK (from UniProt P61978 1-463), the binding result is reported as “binds”.
Regarding EPOP (from UniProt A6NHQ4 1-379), the binding entry was “binds”.
SND1 (from UniProt Q7KZF4 1-910): the binding entry is listed as “binds”.
Turning to CORO1A (from UniProt P31146 1-461), the binding result is listed as “binds”.
Turning to ATP5A1 (from UniProt P25705 44-553), the binding entry is given as “binds”.
As for “eEF1A1 (Elongation factor 1-α1) (from UniProt P68104 1-462)”, the binding result was “binds”.
In the case of DDX5 (from UniProt P17844 1-614), the binding result is recorded as “binds”.
Under NOLC1 (from UniProt Q14978 1-699) stands “binds”; under “CBX3 (Chromobox 3) (from UniProt Q13185 1-183)”, “binds”.
As for YBX1 (from UniProt P67809 1-324), the binding result is “binds”.
For the molecule PABPC1 (from UniProt P11940 1-636), the binding result was “binds”.
Turning to SPTB2 (from UniProt Q01082 1-2364), the binding entry was “binds”.
Regarding HNRNPH1 (from UniProt P31943 1-449), the binding result was “binds”.
For MSN (from UniProt P26038 1-577), the binding entry is on record as “binds”.
On to FLNA (from UniProt P21333 1-2647), for which the binding result is “binds”.
Under MTF2 (from UniProt Q9Y483 1-593) stands “binds”; under PTBP1 (from UniProt P26599 1-557), “binds”.
As to PARP1 (from UniProt P09874 1-1014), the binding result is given as “binds”.
Regarding PHF1 (from UniProt O43189 1-567), the binding entry is “binds”.
Regarding ANPEP (from UniProt P15144 1-967), the binding result is given as “binds”.
With RPLP1 (from UniProt P05386 1-114), the binding result was “binds”.
With DMAP1 (from UniProt Q9NPF5 1-467), the binding result is “binds”.
As to AICDA (from UniProt Q9GZX7 1-198), the binding entry is recorded as “binds”.
Turning to RPLP2 (from UniProt P05387 1-115), the binding result is listed as “binds”.
As for B1, the binding result is “binds”.
B2: the binding result is reported as “binds”.
Take B3: the binding entry was “binds”.
Under B4 stands “binds”; under B5, “binds”.
